# Percent effect of library compounds

Data taken from ChEMBL document CHEMBL3988442, “University of Dundee, Small-Polar-MMV Screening Library” (2021).

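Growth of Mycobacterium tuberculosis over 3 days (7H9 medium with glucose and tyloxapol); the read-out is not stated. Compounds at 500 µM. The record gives no direction; compounds that gave an IC50 in retests scored well above the rest, so higher reads as more growth inhibition. Size under these conditions: about 18,000 compounds, about 1,400 of them at 50% or above in at least one test.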

Each number is a percent effect as filed.
The record does not define 0% and 100%; most values in the screen are far below 50% and negative numbers occur (in some assays of this library far below -100).
The compounds are a random part of those screened.

structure,effect
CCn1cc(NC(=O)NCCCNC(C)=O)cn1,-6.332
COCCN(CC(N)=O)C(=O)c1ccc(F)c(Br)c1,-9.266
COc1cccc(CN2CCC3(CC2)OCC(C)O3)c1 (configuration not stated),59.6
CN(C(=O)c1c(F)cccc1Cl)C1CCS(=O)(=O)C1 (configuration not stated),6.367
O=C(CC1CCCN1)Nc1ccc2[nH]ncc2c1 (configuration not stated),7.76
Cc1ccccc1CN(C)CC(=O)N1CCN(C)CC1,13
CCN(CC(C)C#N)C(=O)c1ccc(Br)o1 (configuration not stated),16.35
N#Cc1ccc(NC(=O)N2CCCC(O)C2)cc1 (configuration not stated),20.11
CNc1nc(C(=O)N[C@@H]2CC[C@@H](N)C2)cs1,2.865
COCc1ccc(C#N)cc1,26.8
CC(O)CN1CCN(c2ncnc3c2CCC3)CC1 (configuration not stated),5.911
CN(Cc1cccs1)C(=O)CSc1n[nH]c(=O)n1C,4.618
CN(C)C1CN(C(=O)Nc2cccc(OCCF)c2)C1,6.473
Cn1cc(NC(=O)NCC2(O)CCCCC2)cn1,-4.57
CC(C)NC(=O)C(C)N1CCNCC1 (configuration not stated),-1.319
CN1CCC(NC(=O)CC(C)(C)C)CC1,0.382
O=C(NCC1CCOC1)c1sccc1-n1cccc1 (configuration not stated),20.58
O=C(NCCS(=O)(=O)N1CCSCC1)c1ccccc1,-3.073
CCCS(=O)(=O)N[C@@H]1CN(C)C[C@H]1CN(C)C,4.986
CC(=O)NCCCNCc1ccc(Br)c2cccnc12,53.68
CN(CCOCc1ccccc1)C(=O)c1cc[nH]n1,18.27
Cc1ccc(C(=O)C2CCN(S(C)(=O)=O)CC2)cc1,-2.88
CCC(CO)NC(=O)Nc1ccc(N2CCCC2)nc1 (configuration not stated),1.875
CNS(=O)(=O)c1ccccc1C(=O)OC,5.213
CC(=O)NCc1cn2c(C)cccc2n1,4.277
COc1cccc(CN(C)C(=O)c2cc[nH]n2)n1,21.29
COC(=O)NC(=O)CN1CCN(c2ccccc2)CC1,13.09
Cc1c(NC(=O)c2cnccn2)cccc1C(N)=O,8.196
COCCCN1CCN(CCOC)CC1,3.263
CCOc1ccc(NC(=O)NC2CCS(=O)(=O)C2)cc1 (configuration not stated),11.88
CCOc1cc(C)ccc1S(=O)(=O)Nc1ccccn1,5.552
Cc1onc(N)c1S(=O)(=O)NCc1ccccn1,4.206
CC1CCCCN1S(=O)(=O)N1CCNCC1 (configuration not stated),1.734
CCN(C)S(=O)(=O)NCC1(N)CCCCC1,-4.73
CSc1ncnc2c1cnn2C,-15.62
Nc1[nH]nc(C(=O)N2CC(N3CCCCC3)C2)c1Cl,-0.6228
O=C(NCC1(CO)CC1)OCc1ccccc1,60.99
CC(C)OC(=O)CCN,-7.222
CN(C)c1ncc(CN2CCCC(O)(CO)CC2)cn1 (configuration not stated),8.902
CCCC(C(=O)OCC)n1ccc(N)n1 (configuration not stated),12.28
N#CC1(C(=O)N2CCc3sccc3C2)CCCC1,82.32
O=C(NCC1CCS(=O)(=O)C1)N(CCO)C1CC1 (configuration not stated),3.025
CC(=O)NCCNCc1cc(O)c2cc(F)ccc2n1,5.967
O=C(Cn1cc(Br)ccc1=O)NCc1ccon1,-5.96
COCCN(C)CC(=O)N1C[C@@H](C)[C@](O)(C2CC2)C1,-4.747
CN(Cc1cccnc1)CC(C)(CO)CO,1.478
Nc1cc(-c2cccnc2)nn1CCO,7.549

3 of the entries, repeated:

With CCCC(C(=O)OCC)n1ccc(N)n1 (configuration not stated) the screen gave 12.28%.
With COCCCN1CCN(CCOC)CC1 the screen gave 3.263%.
With COCCN(CC(N)=O)C(=O)c1ccc(F)c(Br)c1 the screen gave -9.266%.